From patent US20210087231A1 (UNIVERSITY OF MARYLAND BALTIMORE, published 2021) come the findings set out here.

Chains of the proteins cited; added tags and fusions are not shown.
UniProt P22366: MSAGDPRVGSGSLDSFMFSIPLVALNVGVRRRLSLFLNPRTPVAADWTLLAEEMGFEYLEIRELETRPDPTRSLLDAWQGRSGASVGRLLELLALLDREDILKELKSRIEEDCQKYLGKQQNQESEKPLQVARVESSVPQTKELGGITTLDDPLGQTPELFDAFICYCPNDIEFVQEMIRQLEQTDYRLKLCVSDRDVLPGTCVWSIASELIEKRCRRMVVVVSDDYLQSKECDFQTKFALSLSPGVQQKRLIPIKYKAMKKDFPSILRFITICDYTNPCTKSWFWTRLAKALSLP

Results are given in words; binding and its absence hold for the method and conditions named. In cells and extracts the contact can be indirect. Some binding calls cover weakened binding; strength is not graded here.

In the assay the target is T1, IRAK4 (endogenous, mouse bone marrow-derived macrophages) (mouse) (UniProt Q8R4K2).
T1 sequence (looked up): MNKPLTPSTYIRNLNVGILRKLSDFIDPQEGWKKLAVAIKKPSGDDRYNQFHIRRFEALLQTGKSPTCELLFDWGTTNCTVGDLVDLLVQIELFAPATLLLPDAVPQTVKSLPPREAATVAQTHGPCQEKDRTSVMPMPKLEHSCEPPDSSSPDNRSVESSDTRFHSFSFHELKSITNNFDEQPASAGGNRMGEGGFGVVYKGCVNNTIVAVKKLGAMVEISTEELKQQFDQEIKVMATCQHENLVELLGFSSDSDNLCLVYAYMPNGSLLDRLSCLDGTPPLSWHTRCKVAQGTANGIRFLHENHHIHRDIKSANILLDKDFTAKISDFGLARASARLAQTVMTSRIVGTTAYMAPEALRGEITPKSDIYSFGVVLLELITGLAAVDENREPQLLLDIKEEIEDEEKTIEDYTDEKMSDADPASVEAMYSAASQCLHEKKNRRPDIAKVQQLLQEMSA
The assay can be described thus: co-immunoprecipitation: anti-MyD88 Ab pull-down from lysates of ODN 1668-stimulated mouse BMDM, anti-IRAK4 blot (FIG. 7).

Consider “MyD88 (endogenous, mouse bone marrow-derived macrophages) (from UniProt P22366 1-296)”, for which the binding entry is recorded as “binds”.
